Laboratory results as given in patent US10022308B2, “Wipe and methods for improving skin health” (Kimberly-Clark Worldwide, Inc., priority 2003, dated 2018).
Some entries share one result that the patent states for a list of compounds. For at least one compound, name, drawing or mass did not settle the structure.

Test system: P. aeruginosa (ATCC #27853)
Experiment: Adhesion assay for P. aeruginosa on synthetic skin substrate
Type: cell-based, Pseudomonas aeruginosa
Settings: inhibition relative to absence of botanical
Protocol: The protocols for testing the ability of botanical compounds to elicit any of these desired effects are set forth in the Examples. In general, the ability of a botanical compound to affect the adherence of an organism to skin is determined by comparing the adherence of the organism to skin in the presence of the botanical compound, to the adherence of the organism to skin in the absence of the botanical compound. If the amount of adherence in the presence of the botanical compound is 150% or greater than the amount of adherence in the absence of the botanical compound, then the botanical compound is an adherence promoter for that organism. If the amount of adherence in the presence of the botanical compound is 50% or less than the amount of adherence in the absence of the botanical compound, then the botanical compound is an anti-adherent for that organism.
Each of the botanical compounds listed in Table 1 was screened to measure the effect of the compound on the adhesion of P. mirabilis, S. epidermidis, or P. aeruginosa to the skin. […]
The next day, the optical density (650 nm) of the TSB culture was read. […] AlamarBlue® levels were read (emission levels read at 590 nm) in an Ascent plate reader (excitation level of 544 nm) at 1 and 2 hours. When not being read, the plate was incubated at 37° C. with a lid. […]

CCCC(O)CO (stereo not shown) [Hydrolite-5]
inhibition of the adherence of Pseudomonas aeruginosa to the surface of skin or mucosa: at least 50%
